These are yes or no findings as the source states them, for the method shown. In cells and extracts the contact can be indirect. Some entries that bind do so weakly or less than the wild type.
Experiments:
[1] = biological target: NMDA receptor subunit GluN2A (endogenous, rat hippocampus) (rat (endogenous in rat hippocampus)) (UniProt Q00959); experiment: co-IP; 50 ug rat hippocampal P2 crude membrane fraction; RIA buffer (200 mM NaCl, 10 mM EDTA, 10 mM Na2HPO4, 0.5% NP-40, 0.1% SDS); polyclonal anti-GluN2A or monoclonal anti-PSD-95 overnight at 4 C, protein A/G-agarose; western blot
GST-GluN2A(1,049-1,464) = GST-GluN2A(1,049-1,464) (UniProt Q00959); experiment: pull-down; GST fusion proteins on glutathione agarose beads incubated 2 h with rat brain homogenate (250 ug, pre-cleared on GST alone) in TBS (10 mM Tris, 150 mM NaCl), room temperature; washed with TBS and 0.1% Triton X-100; western blot for Rph3A; for GST-GluN2A(1,049-1,464) also with 175 ug hippocampal homogenate with or without 20 mM Ca2+ and 1 mM IP3; only the target purified
GST-GluN2A(1,244-1,389) = GST-GluN2A(1,244-1,389) (UniProt Q00959); experiment: as above
GST-GluN2A(1,349-1,461) = GST-GluN2A(1,349-1,461) (UniProt Q00959); experiment: as above

Amino acid sequences for entries named in this document (tags omitted). Residues count along the entry.
GST-GluN2A(1,049-1,464) (Q00959, residues 1049-1464): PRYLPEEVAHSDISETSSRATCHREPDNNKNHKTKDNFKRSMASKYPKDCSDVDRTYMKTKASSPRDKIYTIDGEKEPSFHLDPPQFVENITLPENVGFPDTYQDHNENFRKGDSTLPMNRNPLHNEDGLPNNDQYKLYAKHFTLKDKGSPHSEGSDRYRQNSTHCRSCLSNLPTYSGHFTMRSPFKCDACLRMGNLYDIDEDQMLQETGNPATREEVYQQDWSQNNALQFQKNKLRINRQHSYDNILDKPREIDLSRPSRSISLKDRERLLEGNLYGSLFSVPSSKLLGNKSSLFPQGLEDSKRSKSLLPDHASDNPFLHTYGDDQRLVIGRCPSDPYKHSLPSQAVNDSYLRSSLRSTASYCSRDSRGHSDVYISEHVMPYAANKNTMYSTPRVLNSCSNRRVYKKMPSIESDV
GST-GluN2A(1,244-1,389) (Q00959, residues 1244-1389): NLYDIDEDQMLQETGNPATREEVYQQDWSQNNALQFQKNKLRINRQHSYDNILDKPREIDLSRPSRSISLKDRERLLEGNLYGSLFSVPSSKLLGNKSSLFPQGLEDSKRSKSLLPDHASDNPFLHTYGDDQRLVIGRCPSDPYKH
GST-GluN2A(1,349-1,461) (Q00959, residues 1349-1461): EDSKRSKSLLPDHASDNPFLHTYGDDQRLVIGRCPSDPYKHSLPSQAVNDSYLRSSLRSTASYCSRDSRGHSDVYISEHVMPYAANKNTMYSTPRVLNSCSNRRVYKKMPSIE
UniProt P47709: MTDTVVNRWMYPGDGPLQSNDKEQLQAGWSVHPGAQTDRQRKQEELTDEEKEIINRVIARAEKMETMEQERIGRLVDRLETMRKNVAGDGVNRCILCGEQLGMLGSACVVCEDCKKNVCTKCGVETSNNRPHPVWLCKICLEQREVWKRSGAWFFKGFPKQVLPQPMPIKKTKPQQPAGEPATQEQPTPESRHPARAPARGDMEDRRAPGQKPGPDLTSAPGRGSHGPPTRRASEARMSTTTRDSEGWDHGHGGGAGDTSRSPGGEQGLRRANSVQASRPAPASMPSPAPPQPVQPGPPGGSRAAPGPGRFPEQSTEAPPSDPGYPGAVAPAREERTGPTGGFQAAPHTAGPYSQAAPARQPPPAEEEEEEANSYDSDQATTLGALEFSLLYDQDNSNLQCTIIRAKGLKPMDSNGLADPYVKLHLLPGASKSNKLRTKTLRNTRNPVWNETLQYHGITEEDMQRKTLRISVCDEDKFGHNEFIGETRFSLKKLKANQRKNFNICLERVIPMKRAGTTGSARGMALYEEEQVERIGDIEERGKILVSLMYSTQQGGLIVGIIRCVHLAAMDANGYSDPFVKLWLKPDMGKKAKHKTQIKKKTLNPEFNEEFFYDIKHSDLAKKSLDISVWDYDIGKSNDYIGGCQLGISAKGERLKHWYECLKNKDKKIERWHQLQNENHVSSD

Measured: binding

Rabphilin 3A (endogenous, rat brain) (from UniProt P47709 1-684)
binds: all assays above

Reference: paper PMC4703873
